Measured values: paper PMC5601180, “Uptake and metabolism of sulphated steroids by the blood–brain barrier in the adult male rat” (Journal of Neurochemistry, 2017)

Key:
[1] = Bilateral brain perfusion, capillary depletion and separation of free and sulphated 3H-steroids; assay type: in vivo, rat; conditions: after perfusion with the 3H-steroid sulphate
Procedure: Brains were bilaterally perfused for 0.5 min with ^3H‐labelled DHEAS 1.25 or 6.0 μCi (0.046 or 0.221 MBq)/mL (13.5 or 64.9 nM) or PregS 1.0 μCi (0.037 MBq)/mL (47.6 nM). The hindbrain was removed and each hemisphere homogenised in 2 vols (w/v) buffer containing (in mM) NaCl 141, KCl 4, NaH2PO4 1, CaCl2 2.8, MgCl2 1, HEPES 10, D‐glucose 10, pH 7.4. A sample of the homogenate of the whole right hemisphere was removed for scintillation counting, and the remainder retained as the whole brain homogenate.
The left hemisphere homogenate was separated into capillary‐enriched and capillary‐depleted fractions by the method of Triguero et al. (1990). For this, an equal volume of 26% dextran (w/w) solution was added to the homogenate and a sample taken for liquid scintillation counting before centrifugation at 5300 g for 15 min at 4°C. The upper layer was taken as the capillary‐depleted fraction and the pellet as the capillary‐enriched fraction.
Before extraction, fractions were sonicated in 5 vols ice‐cold, 5 mM potassium phosphate buffer, pH 7. Small portions (150 μL) were removed for measurement of protein content (Bradford 1976) and total radioactivity. For the latter, homogenate was solubilised (15 min, 20°C) in 10 vols Soluene then bleached (2 h, 50°C) with 0.3 vol hydrogen peroxide before counting in Ecoscint H containing Triton X‐100 (6% v/v), glacial acetic acid (0.6% v/v) and butylated hydroxytoluene (2% w/v). The remainder of each homogenate was extracted as described in detail elsewhere (Ebner et al. 2006; Sujkovic et al. 2009), to give free steroid and steroid sulphate fractions. First, homogenates were extracted into 20 vols ethanol containing acetic acid 3% (v/v). After centrifugation (28 000 g, 30 min, 25°C) to remove denatured protein, the extracts were delipidated by partitioning three times against 10 vols isooctane. Extracts were dried down under vacuum and redissolved in ethanol, which was then diluted to 20% v/v in 5 mM potassium phosphate buffer, pH 7.0 at a total volume of 20 ml. Separation of free and sulphated steroids was achieved by passage through a 60 mg Oasis MAX® cartridge. After washing the cartridge with 5 mL ethanol at 20% v/v in ammonium acetate (20 mM, pH 7), free steroids were eluted in 4 mL ethyl acetate. Passage of 20 mL ethanol at 60% v/v in formate/pyridine buffer (20 mM, pH 3) eluted any steroid glucuronides present. Finally, steroid sulphates were eluted in 30 mL 60% v/v ethanol containing ammonium carbonate 1% (w/v). To measure the radioactivity of each fraction, portions were dried down and then redissolved in Ecoscint H for counting. The remainder was dried down, redissolved in ethanol 96% v/v and stored at −20°C for subsequent analysis by TLC.

[2] = standard added to rat brain homogenate, n = 4

Row | SMILES | extraction efficiency for total radioactivity from capillary [1] | extraction efficiency for total radioactivity from parenchyma [1] | recovery into free steroid (FS) fraction [2] | recovery into steroid glucuronide (SG) fraction [2] | recovery into steroid sulphate (SS) fraction [2]
1 | C[C@]12CC[C@H](OS(=O)(=O)O)CC1=CCC1C2CC[C@]2(C)C(=O)CCC12 (stereo partly shown) [DHEAS, dehydroepiandrosterone sulphate] | 80.0 ± 1.3% | 98.6 ± 8.2% | 1.89 ± 0.28% | 0.18 ± 0.01% | 74.15 ± 0.92%
2 | CC(=O)[C@H]1CCC2C3CC=C4C[C@@H](OS(=O)(=O)O)CC[C@]4(C)C3CC[C@@]21C (stereo partly shown) [PregS, pregnenolone sulphate] | 76.0 ± 2.3% | 88.7 ± 4.3% | 6.84 ± 0.69% | 0.13 ± 0.02% | 42.03 ± 1.29%
3 | CC(=O)[C@H]1CC[C@H]2[C@@H]3CC=C4C[C@@H](O)CC[C@]4(C)[C@H]3CC[C@]12C [^3H‐Preg, [7‐^3H]‐pregnenolone, reference compound] |  |  | 102.01 ± 4.00% | 2.26 ± 0.24% | 0.25 ± 0.03%
